In US6727407:
Results are given in words; binding and its absence hold for the method and conditions named. For part of these data: Binding seen in cells or lysates may run through a third protein. Some results given as binding are weak or reduced against the parent protein; the word gives no strength. For part of these data: Sequences can lack the tags named with a protein.

Protein sequences, listed by entry. Tags and fused reporters are not part of them. Lines headed by an entry give the natural chain unless they say otherwise; changes in a name come on top.
UniProt P92973: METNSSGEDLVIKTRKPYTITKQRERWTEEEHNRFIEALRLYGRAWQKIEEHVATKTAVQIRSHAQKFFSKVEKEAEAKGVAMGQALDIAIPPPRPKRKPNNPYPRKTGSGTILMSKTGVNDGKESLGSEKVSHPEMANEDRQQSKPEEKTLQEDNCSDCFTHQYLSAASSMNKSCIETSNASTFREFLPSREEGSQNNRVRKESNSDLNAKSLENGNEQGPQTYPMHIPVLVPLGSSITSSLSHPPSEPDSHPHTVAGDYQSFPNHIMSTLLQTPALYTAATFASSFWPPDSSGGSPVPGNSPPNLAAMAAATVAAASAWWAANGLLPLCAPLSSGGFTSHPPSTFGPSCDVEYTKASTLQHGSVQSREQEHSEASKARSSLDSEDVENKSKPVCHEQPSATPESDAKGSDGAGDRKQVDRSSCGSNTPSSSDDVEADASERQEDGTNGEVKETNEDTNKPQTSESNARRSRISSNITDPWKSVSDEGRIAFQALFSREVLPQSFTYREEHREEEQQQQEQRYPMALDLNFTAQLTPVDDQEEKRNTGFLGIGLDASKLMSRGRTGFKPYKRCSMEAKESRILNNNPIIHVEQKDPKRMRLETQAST
UniProt P04386: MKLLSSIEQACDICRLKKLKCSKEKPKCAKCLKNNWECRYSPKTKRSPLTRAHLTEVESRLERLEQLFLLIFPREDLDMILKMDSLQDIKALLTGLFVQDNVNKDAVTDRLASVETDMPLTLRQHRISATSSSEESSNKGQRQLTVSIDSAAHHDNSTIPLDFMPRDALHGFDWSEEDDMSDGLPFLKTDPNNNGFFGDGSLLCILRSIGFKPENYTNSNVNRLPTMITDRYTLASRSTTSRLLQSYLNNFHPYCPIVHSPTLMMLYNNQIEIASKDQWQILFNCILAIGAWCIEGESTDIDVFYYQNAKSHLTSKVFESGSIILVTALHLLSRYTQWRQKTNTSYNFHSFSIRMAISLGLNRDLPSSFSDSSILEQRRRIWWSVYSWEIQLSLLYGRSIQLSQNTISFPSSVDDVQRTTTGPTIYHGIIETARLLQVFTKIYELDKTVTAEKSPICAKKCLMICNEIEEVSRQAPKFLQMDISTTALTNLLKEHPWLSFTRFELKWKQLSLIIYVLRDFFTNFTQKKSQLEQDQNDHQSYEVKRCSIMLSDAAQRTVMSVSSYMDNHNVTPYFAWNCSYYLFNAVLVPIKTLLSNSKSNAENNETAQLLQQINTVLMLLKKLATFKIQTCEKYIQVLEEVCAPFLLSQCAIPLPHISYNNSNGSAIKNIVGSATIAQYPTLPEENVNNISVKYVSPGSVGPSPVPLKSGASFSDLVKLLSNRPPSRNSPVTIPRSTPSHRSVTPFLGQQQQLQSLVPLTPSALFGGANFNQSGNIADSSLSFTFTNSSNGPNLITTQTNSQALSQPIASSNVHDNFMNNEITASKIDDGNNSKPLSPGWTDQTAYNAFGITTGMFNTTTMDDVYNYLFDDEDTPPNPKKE

T1: GST-LHY (Arabidopsis thaliana) (UniProt Q6R0H1)
T1 sequence (looked up): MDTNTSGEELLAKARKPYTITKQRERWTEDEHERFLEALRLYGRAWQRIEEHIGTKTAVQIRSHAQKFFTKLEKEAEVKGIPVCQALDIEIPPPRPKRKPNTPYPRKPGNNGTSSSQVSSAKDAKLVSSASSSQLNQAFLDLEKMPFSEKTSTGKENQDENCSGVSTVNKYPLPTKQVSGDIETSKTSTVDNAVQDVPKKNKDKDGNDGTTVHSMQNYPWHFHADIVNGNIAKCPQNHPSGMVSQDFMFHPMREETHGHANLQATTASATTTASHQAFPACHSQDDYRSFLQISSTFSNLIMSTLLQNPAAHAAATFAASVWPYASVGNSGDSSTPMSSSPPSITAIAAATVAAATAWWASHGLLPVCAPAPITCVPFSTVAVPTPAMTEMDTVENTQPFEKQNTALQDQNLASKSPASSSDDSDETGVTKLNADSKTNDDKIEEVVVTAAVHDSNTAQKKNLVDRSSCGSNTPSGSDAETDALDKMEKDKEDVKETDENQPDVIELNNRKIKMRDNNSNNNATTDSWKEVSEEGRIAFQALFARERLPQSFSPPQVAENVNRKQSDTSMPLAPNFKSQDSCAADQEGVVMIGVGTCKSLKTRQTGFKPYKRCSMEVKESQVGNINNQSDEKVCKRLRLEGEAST


How the values were obtained:
[1] = biological target: T1, GST-LHY (Arabidopsis thaliana); test: GST pull-down of 35S-labeled CKB3 on glutathione-agarose beads, 12.5% SDS-PAGE
[2] = biological target: T1, GST-LHY (Arabidopsis thaliana); test: GST pull-down of 35S-labeled protein on glutathione-agarose beads, SDS-PAGE autoradiography
[3] = biological target: GST-CCA1 (Arabidopsis thaliana) (UniProt P92973); test: as above
[4] = biological target: T2, GAL4-DB-CCA1 (entire coding region for CCA1 fused to the GAL4 DNA-binding domain in pAS2) (Arabidopsis thaliana) (UniProt P04386+P92973); test: yeast two-hybrid, HIS3 growth and β-galactosidase filter assay
[5] = biological target: T2, GAL4-DB-CCA1 (entire coding region for CCA1 fused to the GAL4 DNA-binding domain in pAS2) (Arabidopsis thaliana); test: yeast two-hybrid screen, HIS3 and lacZ reporters

binding [3] | binding [4] | Binder | also measured
binds | – | 35S-labeled CKB3 (Arabidopsis protein kinase CK2 β-subunit CKB3), synthesized by coupled transcription-translation in wheat germ extract (protein, [35S]methionine label) MYKERSGGGGGGSSRSEILGGAIDRKRINDALNKKLEKSSTSTTTSRVFSSKDKDPFSFTSTKTQLPDVESETDSEGSDVSGSEGDDTSWISWFCNLRGNDFFCEVDEDYIQDDFNLCGLSGQVPYYDYALDLILDVDASNSEMFTDEQHEMVESAAEMLYGLIHVRYILTTKGMAAMTEKYKNCDFGRCPRVFCCGQSCLPVGQSDIPRSSTVKIYCPKCEDISYPRSKFQGNIDGAYFGTTFPHLFLMTYGNLKPQKPTQSYVPKIFGFKVHKP | binding [1]: binds; binding [2]: binds
– | binds | GAL4-AD-CKB3 (full-length CKB3 fused to the GAL4 transactivation domain) (protein, not shown: large carriers) MYKERSGGGGGGSSRSEILGGAIDRKRINDALNKKLEKSSTSTTTSRVFSSKDKDPFSFTSTKTQLPDVESETDSEGSDVSGSEGDDTSWISWFCNLRGNDFFCEVDEDYIQDDFNLCGLSGQVPYYDYALDLILDVDASNSEMFTDEQHEMVESAAEMLYGLIHVRYILTTKGMAAMTEKYKNCDFGRCPRVFCCGQSCLPVGQSDIPRSSTVKIYCPKCEDISYPRSKFQGNIDGAYFGTTFPHLFLMTYGNLKPQKPTQSYVPKIFGFKVHKP | –
binds | – | CKA2 (α-subunit of Arabidopsis protein kinase CK2) (enzyme, Arabidopsis thaliana, UniProt Q08466-2 1-333, looked up) MSKARVYTDVNVIRPKDYWDYESLNVQWGEQDDYEVVRKVGRGKYSEVFEGINMNNNEKCIIKILKPVKKKKIRREIKILQNLCGGPNIVKLLDVVRDQHSKTPSLIFEYVNSTDFKVLYPTLTDYDIRYYIYELLKALDFCHSQGIMHRDVKPHNVMIDHELRKLRLIDWGLAEFYHPGKEYNVRVASRYFKGPELLVDLQDYDYSLDMWSLGCMFAGMIFRKEPFFYGHDNQDQLVKIAKVLGTDELNAYLNKYQLELDTQLEALVGRHSRKPWSKFINADNRHLVSPEAIDYLDKLLRYDHQDRLTAKEAMAHPYFAQVRAAESSRMRTQ | –
binds | – | 35S-labeled CKB2 (Arabidopsis CK2 β-subunit CKB2), in vitro translated (protein, Arabidopsis thaliana, UniProt P40229 1-282, looked up, [35S]methionine label) MYRERGMVGSKSEVVDRKRINEIHDNRPSHSMSQPVNGKGKVTSTSVLMGKQQLHDKESSRSGSISKTNISDAVDISDTDSEESEVSGSDGEDTSWISWFCNLRGNEFFCEVDDDYIQDDFNLCGLSHQVPYYDYALDLILDVESSHGEMFTEEQNELIESAAEMLYGMIHARFILTSKGLASMLDKYKNYDFGRCPRVYCCGQPCLPVGQSDIPRASTVKIYCPKCEDVYYPRSKYQGNIDGAYFGTTFPHLFLMTYGHLKPQKASQSYTQRVFGFKLHKP | –
– | binds | GAL4-AD-CKB2 (protein, Arabidopsis thaliana, UniProt P40229 1-282, looked up, not shown: large carriers) MYRERGMVGSKSEVVDRKRINEIHDNRPSHSMSQPVNGKGKVTSTSVLMGKQQLHDKESSRSGSISKTNISDAVDISDTDSEESEVSGSDGEDTSWISWFCNLRGNEFFCEVDDDYIQDDFNLCGLSHQVPYYDYALDLILDVESSHGEMFTEEQNELIESAAEMLYGMIHARFILTSKGLASMLDKYKNYDFGRCPRVYCCGQPCLPVGQSDIPRASTVKIYCPKCEDVYYPRSKYQGNIDGAYFGTTFPHLFLMTYGHLKPQKASQSYTQRVFGFKLHKP | –
binds | – | 35S-labeled CKB1 (Arabidopsis CK2 β-subunit CKB1), in vitro translated (protein, Arabidopsis thaliana, UniProt P40228 1-287, looked up, [35S]methionine label) MYRDRGTVNSRPEVVDRKRINDALERPSPSTSRQVNGKGKGTVTAATTTANLIGKQQSNNINHRDSRSASLSKNNTVSDDESDTDSEESDVSGSDGEDTSWISWFCNLRGNEFFCEVDDDYIQDDFNLCGLSSLVPYYEYALDLILDVESSQGEMFTEEQNELIESAAEMLYGLIHARYILTSKGLAAMLDKYKNYDFGRCPRVYCCGQPCLPVGQSDLPRSSTVKIYCPKCEDIYYPRSKYQGNIDGAYFGTTFPHLFLMTYGHLKPAKATQNYVQRVFGFKLHKP | binding [2]: binds
– | binds | GAL4-AD-CKB1 (protein, Arabidopsis thaliana, UniProt P40228 1-287, looked up, not shown: large carriers) MYRDRGTVNSRPEVVDRKRINDALERPSPSTSRQVNGKGKGTVTAATTTANLIGKQQSNNINHRDSRSASLSKNNTVSDDESDTDSEESDVSGSDGEDTSWISWFCNLRGNEFFCEVDDDYIQDDFNLCGLSSLVPYYEYALDLILDVESSQGEMFTEEQNELIESAAEMLYGLIHARYILTSKGLAAMLDKYKNYDFGRCPRVYCCGQPCLPVGQSDLPRSSTVKIYCPKCEDIYYPRSKYQGNIDGAYFGTTFPHLFLMTYGHLKPAKATQNYVQRVFGFKLHKP | –
– | – | GAL4-AD fusion of the clone 106 product (214 amino acid fragment of CKB3) (protein, not shown: large carriers) KTQLPDVESETDSEGSDVSGSEGDDTSWISWFCNLRGNDFFCEVDEDYIQDDFNLCGLSGQVPYYDYALDLILDVDASNSEMFTDEQHEMVESAAEMLYGLIHVRYILTTKGMAAMTEKYKNCDFGRCPRVFCCGQSCLPVGQSDIPRSSTVKIYCPKCEDISYPRSKFQGNIDGAYFGTTFPHLFLMTYGNLKPQKPTQSYVPKIFGFKVHKP | binding [5]: binds

Binder | binding [3] | binding [4] | also measured
CKA1 (α-subunit of Arabidopsis protein kinase CK2) (enzyme, Arabidopsis thaliana, UniProt Q08467-3 1-333, looked up) MSKARVYTEVNVIRPKDYWDYESLIVQWGEQDDYEVVRKVGRGKYSEVFEGINVNSKEKCIIKILKPVKKKKIRREIKILQNLCGGPNIVKLLDVVRDQHSKTPSLIFEYVNSTDFKVLYPTLTDYDIRYYIYELLKALDFCHSQGIMHRDVKPHNVMIDHELRKLRLIDWGLAEFYHPGKEYNVRVASRYFKGPELLVDLQDYDYSLDMWSLGCMFAGMIFRKEPFFYGHDNQDQLVKIAKVLGTDELNAYLNKYQLELDPQLEALVGRHSRKPWSKFINADNQHLVSPEAIDFLDKLLRYDHQDRLTAKEAMAHAYFAQVRAAETSRMRSQ | binds | – | –
